# Results: PubChem BioAssay AID2685 (National Center for Advancing Translational Sciences (NCATS), 2010)
# Hit rate of the full screen: of about 320,000 compounds, about 2,100 (0.66%) were called active. Inconclusive means that the source gave no clear call. Such entries were picked first, then a sample of the others. Calls come from the whole dose curve; as a rule, active = well fitted inhibition curve with a large enough effect in the signal ratio, with a control signal flat (not every such curve was filed as active); inconclusive = small, poorly fitted or top-dose-only effect, or effect the other way, or a change in a side signal; inactive = flat fitted curve, though single readings scatter; the % refers to the signal ratio. Potencies beside an inconclusive call are fits to weak or partial responses and may not hold up.
# Test: qHTS Assay for Lipid Storage Modulators in Drosophila S3 Cells
# Details: BODIPY lipid droplet fluorescence, 18-24 h, cells fed with added oleic acid; lipid storage change, negative = inhibition: at 46.1 µM (top of the series) unless noted
# In short: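 Laser-scanning cytometry quantifies lipid droplet accumulation (500–530 nm total intensity; droplet/cell object ratio) in oleic acid-fed (400 uM added) Drosophila S3 cells treated with a concentration series. 20 uM Triacsin C defined 100% inhibition.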
# % is set by controls: 0 for no effect and ±100 for the full control effect; potency is the fitted concentration of half-maximal effect.
SMILES,Potency,"lipid storage change, negative = inhibition",outcome
CC(=O)Nc1ccc(C(=O)NC(CC(=O)O)c2ccc(Cl)cc2)cc1 (stereo unspecified),active: 20.6 µM,–,–
COc1ccc(C(=O)N2N=C3CC(C)(C)OCC3C2c2ccccc2)cc1 (stereo unspecified),–,inconclusive: 48.6%,–
CCOC(=O)CN1NC2(CCC(C(C)(C)C)CC2)NC1=S (stereo unspecified),–,inactive: -2.81%,–
COc1cc(CO)c(OC)c([N+](=O)[O-])c1,"inconclusive: 6.51 µM [falling, single point]",–,–
CC(C)(C)C1CCC(=O)N(CCSc2ccccc2)CC1 (stereo unspecified),active: 6.51 µM,–,–
Cc1cccnc1NS(=O)(=O)c1cccc([N+](=O)[O-])c1,–,inconclusive: 47.8%,–
CC(C)c1onc(C(=O)Nc2cccc(Cl)c2)c1[N+](=O)[O-],–,inconclusive: 16.2%,–
Cc1nc(CC(=O)NNS(=O)(=O)c2ccc3ccccc3c2)cs1,–,inconclusive: -4.15%,–
Cc1c(Cl)cccc1NC(=O)CC1Oc2ccccc2NC1=O (stereo unspecified),–,inconclusive: 9.1%,–
O=C1CCc2cc(S(=O)(=O)NCCC(=O)NC3CCN(Cc4ccccc4)CC3)ccc2N1,–,inconclusive: -4.76%,–
O=[N+]([O-])c1ccccc1CNCCCCO,–,inconclusive: 6.71%,–
CCCCOC(=O)Nc1nc(CC(=O)OCC)cs1,–,inconclusive: 30.6%,–
COC(=O)CC1C(=O)NCCN1C(=O)CSc1nc2ccccc2o1 (stereo unspecified),–,inconclusive: -5.74%,–
CS(=O)(=O)N(CC(=O)N1CCCC1)Cc1ccc(F)cc1,–,inconclusive: 43%,–
COc1ccc(NC(=O)CSc2nc3ccccc3c(=O)n2CCC(=O)N2CCCCC2)cc1,"inconclusive: 29.1 µM [falling, single point]",–,–
S=c1[nH]c(-c2cccs2)cn1-c1ccccc1,–,inconclusive: 78.2%,–
O=S(=O)(Nc1ccc2c3c(cccc13)CC2)c1ccc(F)cc1,–,inconclusive: -8.36%,–
CN(CC1CCN(CCc2cccc(C(F)(F)F)c2)CC1)C(=O)c1ccccc1,–,inconclusive: 27%,–
O=C(O)c1ccccc1C(=O)OCCc1cc2ccccc2c(=O)o1,–,inconclusive: -38.4%,–
COc1ccc(-c2nc(C3CCCCC3)no2)cc1OC,–,inconclusive: -11.1%,–
COc1ccc2c(CC(=O)OCC(=O)Nc3cc(C)c(C)cc3[N+](=O)[O-])coc2c1,"inconclusive: 9.2 µM [activator, partial curve]",–,–
CC1(C)CC(=O)C/C(=N/NC(=O)COc2ccc(Cl)cc2Cl)C1,–,inconclusive: 5.02%,–
Cc1ccc(S(=O)(=O)N2CCC(C(=O)Nc3nnc(COc4ccccc4)s3)CC2)cc1,–,inconclusive: 30.7%,–
COc1ccccc1/C=N/NC(=S)Nc1cccnc1,–,inconclusive: 19.6%,–
O=C(COc1ccc(/C=N/NS(=O)(=O)c2ccccc2)cc1)NCc1ccccc1,–,inconclusive: 26.1%,–
O=C(NCc1cc(C(F)(F)F)cc(C(F)(F)F)c1)C1CC(c2cccc(F)c2)=NO1 (stereo unspecified),–,inconclusive: 16.7%,–

# Given tab-delimited: 14 of the compounds above
SMILES	Potency	lipid storage change, negative = inhibition	outcome
COc1ccc(C(=O)N2N=C3CC(C)(C)OCC3C2c2ccccc2)cc1 (stereo unspecified)	–	inconclusive: 48.6%	–
CCOC(=O)CN1NC2(CCC(C(C)(C)C)CC2)NC1=S (stereo unspecified)	–	inactive: -2.81%	–
CC(C)(C)C1CCC(=O)N(CCSc2ccccc2)CC1 (stereo unspecified)	active: 6.51 µM	–	–
CC(C)c1onc(C(=O)Nc2cccc(Cl)c2)c1[N+](=O)[O-]	–	inconclusive: 16.2%	–
Cc1nc(CC(=O)NNS(=O)(=O)c2ccc3ccccc3c2)cs1	–	inconclusive: -4.15%	–
O=[N+]([O-])c1ccccc1CNCCCCO	–	inconclusive: 6.71%	–
COC(=O)CC1C(=O)NCCN1C(=O)CSc1nc2ccccc2o1 (stereo unspecified)	–	inconclusive: -5.74%	–
COc1ccc(NC(=O)CSc2nc3ccccc3c(=O)n2CCC(=O)N2CCCCC2)cc1	inconclusive: 29.1 µM [falling, single point]	–	–
O=S(=O)(Nc1ccc2c3c(cccc13)CC2)c1ccc(F)cc1	–	inconclusive: -8.36%	–
CN(CC1CCN(CCc2cccc(C(F)(F)F)c2)CC1)C(=O)c1ccccc1	–	inconclusive: 27%	–
COc1ccc(-c2nc(C3CCCCC3)no2)cc1OC	–	inconclusive: -11.1%	–
COc1ccc2c(CC(=O)OCC(=O)Nc3cc(C)c(C)cc3[N+](=O)[O-])coc2c1	inconclusive: 9.2 µM [activator, partial curve]	–	–
CC1(C)CC(=O)C/C(=N/NC(=O)COc2ccc(Cl)cc2Cl)C1	–	inconclusive: 5.02%	–
Cc1ccc(S(=O)(=O)N2CCC(C(=O)Nc3nnc(COc4ccccc4)s3)CC2)cc1	–	inconclusive: 30.7%	–

# Next part

SMILES,Potency,"lipid storage change, negative = inhibition",outcome
O=C(O)c1ccc(CN2CCCCC2)o1,"inconclusive: 7.31 µM [falling, partial curve, poor fit]",–,–
CC1(NC(=O)c2cccc(S(=O)(=O)N3CCN(c4ccccc4)CC3)c2)CCS(=O)(=O)C1 (stereo unspecified),"inconclusive: 32.6 µM [activator, single point]",–,–
C=CCn1c(C)cc(C(=O)Cn2ncc(Cl)c(Cl)c2=O)c1C,–,inconclusive: -85.1%,–
COc1ccc(N2CCN(C(=O)c3ccc(CSc4ccccc4)cc3)CC2)cc1,–,inconclusive: 1.58%,–
C=CCn1c(Oc2ccccc2F)nc2c1c(=O)n(C)c(=O)n2C,"inconclusive: 0.366 µM [falling, full curve]",–,–
COc1ccc(NC(=O)CN2C(=O)CSC(C)C2=O)c(OC)c1 (stereo unspecified),–,inconclusive: 3.78%,–
Cn1c(CNC(=O)c2ccccc2F)nnc1SCC(=O)N1CCN(c2ccccc2)CC1,–,inconclusive: -19.5%,–
CC(=O)N1CCCc2cc(S(=O)(=O)N(C)Cc3ccccc3)ccc21,"inconclusive: 1.64 µM [rising, partial curve]",–,–
COc1ccccc1CN(C(=O)CCl)C(C(=O)NC1CCCCC1)c1ccncc1 (stereo unspecified),–,inconclusive: 16.7%,–
CC(C)OC(=O)c1ccc(NC(=O)c2ccccc2)cc1,–,inconclusive: -41.4%,–
CN1CCC(OC(=O)c2ccccc2Cl)CC1,"inconclusive: 1.64 µM [falling, partial curve]",–,–
Cn1c(/N=C/c2cccs2)nc2ccccc21,–,inconclusive: -16.8%,–
Cc1cc(S(=O)(=O)NCc2cccnc2)ccc1-n1cnnn1,–,–,inactive [at 46.1 µM]
CS(=O)(=O)c1ccc(S(=O)CC(=O)OCc2ccccc2)c([N+](=O)[O-])c1 (stereo unspecified),active: 29.1 µM,–,–
COc1cc([C@@H]2CC=C(C(=O)O)[C@H](c3ccccc3)N2S(=O)(=O)c2ccc(C)cc2)cc(OC)c1OC,"inconclusive: 2.59 µM [activator, full curve]",–,–
Cc1ccc(N(C(=O)CNC(=O)c2ccco2)C(C(=O)NC2CCCCC2)c2ccncc2)c(C)c1 (stereo unspecified),–,inconclusive: 24.2%,–
COc1cc(C)cc(OC)c1OCC(=O)Nc1cc(C)on1,"inconclusive: 18.4 µM [falling, single point]",–,–
Cc1c(C(=O)OCC(=O)Nc2ccc(C(=O)N(C)C)cc2)oc2ccccc12,–,inconclusive: -0.964%,–
Cc1ccc(OCC(=O)Nc2ccccc2C(=O)NC2CC2)cc1C,–,inconclusive: -32.7%,–
N#Cc1c2ccc(OCC(N)=O)cc2n2ccccc12,–,inconclusive: 10.7%,–
Oc1cc(Cc2ccccc2)cnc1CN1CCOCC1,"inconclusive: 6.51 µM [cytotoxic, single point]",–,–
COc1ccc(C(CC(=O)N2CCN(c3ccccc3)CC2)c2c(OC)cc(OC)c3c(-c4ccccc4)cc(=O)oc23)cc1 (stereo unspecified),–,inconclusive: 12.5%,–
O=C(NNC(=S)Nc1ccccc1C(F)(F)F)c1cccnc1,–,inconclusive: -19.3%,–
CC[C@H]1c2[nH]c3ccccc3c2C[C@@H]2C(=O)N(c3ccc(F)cc3)C(=O)N21,–,inconclusive: 18.4%,–
CCN(CC(=O)Nc1ccc(NC(C)=O)cc1)C(=O)C1CC(=O)N(Cc2ccc(C)cc2)C1 (stereo unspecified),"inconclusive: 3.66 µM [activator, full curve]",–,–
